At least one compound was matched to its structure with a doubt left.
Tests used:
Assay in all cases: Transforming activity of methionine S-adenosyl into aminocyclopropane carboxylate (MTA formation at 265 nm)
Format in all cases: biochemical
Settings in all cases: pH 8.5, 25° C.
[1] = target: Cucumis melo ACS8 variant Cmacs8_S295F (S295→F), SEQ ID No 18 (Cucumis melo, UniProt A0A0S2C3P7, S295F)
Method: (§1) Dosing the Transforming Activity of Methionine S-adenosyl into Aminocyclopropane Carboxylate by the 1-aminocyclopropane-1-carboxylate Synthase 8 (ACS8)
(§2) The enzymatic activity of the ACS8 is measured in vitro by following, by 265-nm spectrophotometry, the formation of 5′-methylthioadenosine (MTA) after involving methionine S-adenosyl, deaminase and different PLP concentrations (pyridoxal 5′-phosphate).
(§3) The bacterial strain Escherichia coli BL21(DE3)pLYSS is used for the expression of the enzyme. The cloning vector used is the plasmid pET15b (NOVAGEN) which carries the promoter T7 and comprises resistance to ampicillin. S-adenosyl Methionine (SAM), Pyridoxal 5′phosphate (PLP) and 5′Adenylic Acid Deaminase of Aspergillus (deaminase) are available from the SIGMA company.
(§4) These bacteria Escherichia coli BL21(DE3)pLYSS transformed with the construct carrying the 1-aminocyclopropane-1-carboxylate synthase 8 (ACS8) are incubated in 25 ml LURIA-BERTANI medium (tryptone 10 g/L, yeast extract 5 g/L, NaCl 10 g/L) added with ampicillin and chloramphenicol (50 μg/ml each) overnight at 37° C. This pre-culture is used to inoculate 2 litres of the same medium added with ampicillin (50 μg/ml) and the cells are cultivated at 37° C. in a stirred incubator (180 rpm) up to 0.6 Optical Density (DO=600 nm). IPTG is added (0.5 mM) so as to induce the protein expression during a new 5-hour culture phase at 25° C. Cells are centrifuged and kept overnight at −45° C. Cells are then re-suspended in 15 ml TrisNaCl (50 mM, pH7.9, 500 mM, respectively) then subjected to ice sonication in the presence of a protease inhibitor (phenylmethanesulfonyl fluoride), leupeptin, pepstatin and aprotinin, 10 μg/ml each). The cellular debris are removed during a new centrifugation step at 13,000 g during 15 minutes and the supernatant is immediately used for enzymatic purification.
(§5) Due to the presence of a Histidine tag associated with each of the ACS8, the latter are purified by using a nickel column (Ni-IDA 15 ml) previously balanced with TRIS at PH8 and NaCl (500 mM). After passing the solution containing recombinant ACS8 to be purified, the column is then washed with TRIS at PH8 (50 mM) and NaCl (500 mM) added with imidazole (10 mM) until no protein can be detected at the output any longer. The ACS8 are then eluted with the same buffer solution added with imidazole at 100 mM, then dialysed (KPhos 50 mM á PH8.5) before concentration (MILLIPORE AMICON ULTRA DEVICE, 5000 MWC0). The concentrated fraction (20 mg/ml) of ACS8 is aliquoted and stored with glycerol at −45° C. The purification of protein is followed by capillary electrophoresis (EXPERION DEVICE—BIO RAD) with a PRO260 chip.

Protein sequences, listed by entry. Tags and fused reporters are not part of them.
UniProt A0A0S2C3P7, entry or part of it S295F: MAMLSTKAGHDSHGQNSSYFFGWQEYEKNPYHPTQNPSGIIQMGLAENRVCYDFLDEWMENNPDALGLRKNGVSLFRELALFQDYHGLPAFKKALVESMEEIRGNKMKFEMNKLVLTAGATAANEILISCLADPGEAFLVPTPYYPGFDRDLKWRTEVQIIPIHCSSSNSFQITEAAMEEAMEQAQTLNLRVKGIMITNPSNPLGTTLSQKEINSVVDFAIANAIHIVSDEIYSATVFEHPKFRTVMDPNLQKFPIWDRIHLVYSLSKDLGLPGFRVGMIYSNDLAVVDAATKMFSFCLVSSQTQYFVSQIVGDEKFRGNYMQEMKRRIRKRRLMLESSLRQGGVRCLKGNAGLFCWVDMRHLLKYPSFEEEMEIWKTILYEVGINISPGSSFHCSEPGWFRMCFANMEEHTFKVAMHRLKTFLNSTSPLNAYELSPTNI
UniProt A0A0S2C3P7, entry or part of it G72E: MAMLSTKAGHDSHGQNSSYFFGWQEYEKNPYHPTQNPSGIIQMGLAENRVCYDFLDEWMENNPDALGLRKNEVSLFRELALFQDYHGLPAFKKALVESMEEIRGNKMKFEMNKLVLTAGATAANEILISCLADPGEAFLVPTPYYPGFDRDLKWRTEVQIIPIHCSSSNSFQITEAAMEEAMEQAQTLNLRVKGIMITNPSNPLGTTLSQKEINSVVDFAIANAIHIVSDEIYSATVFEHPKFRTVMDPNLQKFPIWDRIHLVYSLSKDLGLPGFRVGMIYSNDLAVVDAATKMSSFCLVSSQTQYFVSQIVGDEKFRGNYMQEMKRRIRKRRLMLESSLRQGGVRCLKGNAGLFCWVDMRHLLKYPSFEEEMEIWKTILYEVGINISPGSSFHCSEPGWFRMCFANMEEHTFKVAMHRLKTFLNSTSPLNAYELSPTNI

[2] = target: Cucumis melo ACS8 variant Cmacs8_G72E (G72E), SEQ ID not listed (Cucumis melo, UniProt A0A0S2C3P7, G72E)
Method: as §1, §2, §3, §4, §5

[3] = target: T1, Cucumis sativus ACS8 (1-aminocyclopropane-1-carboxylate synthase 8), CsACS8, wild, SEQ ID No 3 (Cucumis sativus, UniProt A0A0A0LKW1)
T1 construct: N-terminus MASLSSKASHDSHGQNSS
T1 sequence (A0A0A0LKW1 1-440): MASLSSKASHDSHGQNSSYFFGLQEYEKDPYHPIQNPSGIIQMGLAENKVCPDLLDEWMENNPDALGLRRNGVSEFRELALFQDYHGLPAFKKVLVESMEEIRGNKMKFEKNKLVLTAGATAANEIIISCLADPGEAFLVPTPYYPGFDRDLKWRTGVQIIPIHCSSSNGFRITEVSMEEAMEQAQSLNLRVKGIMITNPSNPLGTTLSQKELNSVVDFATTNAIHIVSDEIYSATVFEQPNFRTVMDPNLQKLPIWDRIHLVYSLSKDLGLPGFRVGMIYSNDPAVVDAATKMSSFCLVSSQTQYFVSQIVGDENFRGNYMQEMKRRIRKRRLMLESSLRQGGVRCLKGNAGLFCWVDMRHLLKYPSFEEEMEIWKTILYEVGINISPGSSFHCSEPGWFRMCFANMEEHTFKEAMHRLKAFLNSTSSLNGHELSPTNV
Method: as §1, §2, §3, §4, §5

C[S+](CC[C@H](N)C(=O)[O-])C[C@H]1O[C@@H](n2cnc3c(N)ncnc32)[C@H](O)[C@@H]1O (stereo partly drawn) [S-adenosyl Methionine]
Vmax ([1]; PLP 5 μm): 275 ± 100 nmol/min/mg | Vmax ([1]; PLP 100 μm): 400 ± 100 nmol/min/mg | Vmax ([2]; PLP 5 μm): 575 ± 50 nmol/min/mg | Vmax ([2]; PLP 100 μm): 600 ± 50 nmol/min/mg | Vmax ([3]; PLP 5 μm): 500 ± 35 nmol/min/mg | Vmax ([3]; PLP 100 μm): 576 ± 35 nmol/min/mg

Reference: US11236357B2, “Methods of obtaining androecious cucurbit plants” (INSTITUT NATIONAL DE LA RECHERCHE AGRONOMIQUE (INRA), priority 2012, dated 2022)
